The source of these data is patent publication US20240140952A1, “INHIBITORS AND DEGRADERS OF JANUS KINASE 2” (H. LEE MOFFITT CANCER CENTER AND RESEARCH INSTITUTE, INC., priority 2021, published 2024).

For this assay, the system named is UKE-1 cells. The assay is described as follows: UKE-1 cell viability assay (CellTiter Blue). The following applies: UKE1, 72 h, read-out: UKE-1 cell growth inhibition IC50. For orientation: The colour change of resazurin is a common sign of viable cells or microbes.

By IC50 is commonly meant the point on the concentration scale where inhibition reaches its midpoint. For `C[C@@H]1CCN(C(=O)CC#N)C[C@@H]1N(C)c1ncnc2[nH]ccc12` [Tofacitinib, reference compound], the IC50 was 910 ± 100 nM.
